Patent US20190382445A1, “PEPTIDE HAVING MELANOGENESIS-INHIBITING ACTIVITY AND COMPOSITION COMPRISING SAME” (RUBY CROWN CO. LTD., priority 2016, published 2019)
Part of at least one peptide drawing is inferred or uncertain, most often the ends. Ends that are not written are not given here.

Columns and labels:
B16-F10 cells = test: Melanin content in α-MSH-stimulated B16-F10 cells (absorbance at 475 nm); assay type: cell-based, murine; details: pre-treatment up to 300 μM, then 100 nM α-MSH for 72 hours
Protocol: FIG. 2 is an experimental result showing the effect of each hexapeptide on cellular melanin biosynthesis. FIG. 2A represents a peptide wherein the type of amino acids fixed at 3 positions in the amino acid sequence of the amino acids, while the type of amino acids is altered at the other 3 positions. FIG. 2B represents a peptide wherein the amino acid sequence was defined. The cell-based assay in FIG. 2 is conducted by treating B16-F10 cells with a vehicle or peptide at a predetermined concentration, stimulating the same with α-MSH at 100 nM, and measuring absorbance at 475 nm after 72 hours to determine melanin content. Data are expressed in percent (%) as mean ± standard error (mean±SE, n=3) compared to the vehicle control group. […]
The cell-based Assay in FIG. 3 is conducted by treating B16-F10 cells with a vehicle or peptide at a predetermined concentration, stimulating the same with 100 nMα-[…], and measuring the absorbance at 475 nm after 72 hours to determine the melanin content. […]
Melanogenesis-inhibitory effects of the analyte (the peptides) was confirmed using the B16-F10 cell line and HEM. […] Using the culture medium used for culturing cells (conditioned medium), extracellular melanin level was measured. […] A melanin content was determined by measuring an absorbance at 475 nm according to a spectroscopic method. […]

tyrosinase (TYR) = test: Western blot of TYR protein level in α-MSH-stimulated B16-F10 cells; assay type: cell-based, murine; details: 24 hours and 48 hours after 100 nM α-MSH stimulation; normalized to β-actin
[1] = tested on: tyrosinase-related protein 1 (TYRP1); test: Western blot of TYRP1 protein level in α-MSH-stimulated B16-F10 cells; assay type: cell-based, murine; details: 24 hours and 48 hours after 100 nM α-MSH stimulation; normalized to β-actin
[2] = tested on: dopachrome tautomerase (DCT); test: Western blot of DCT protein level in α-MSH-stimulated B16-F10 cells; assay type: cell-based, murine; details: 24 hours and 48 hours after 100 nM α-MSH stimulation; normalized to β-actin
[3] = tested on: human epidermal melanocytes (HEM); test: Melanin content in HEM stimulated with α-MSH or L-tyrosine; assay type: cell-based; details: HEM stimulated with 4 mM L-tyrosine
Source text: FIG. 5 is an experimental result showing effects of peptide B6 on cell viability of human epidermal melanocytes (HEM), melanin content and human tyrosinase (TYR) enzymatic activity. […] The intracellular and extracellular melanin contents were normalized with respect to the total protein content. […] Data are expressed in percent (%) as mean±standard error (mean±SE, n=3) compared to the vehicle control group. In the figures, #represents p<0.05 compared to the control group and * represents p<0.05 compared to cells stimulated only with tyrosine.
Melanogenesis-inhibitory effects of the analyte (the peptides) was confirmed using the B16-F10 cell line and HEM. B16-F10 cells were treated with a test peptide at different concentrations for 60 minutes and stimulated using a 100 nM α-MSH for 72 hours. While HEM was also treated with the test peptide at different concentrations for 60 minutes and cultured with 100 nM α-MSH or 4.0 mM L-tyrosine while replacing the culture medium every 48 hours for 6 days. Using the culture medium used for culturing cells (conditioned medium), extracellular melanin level was measured. […] A melanin content was determined by measuring an absorbance at 475 nm according to a spectroscopic method. […]
Cell viability was determined by treating the cells with B6 at different concentrations of up to 1 mM for 24 hours (A in FIG. 5). […]

human tyrosinase (TYR) = target: T1, human tyrosinase (TYR) (Homo sapiens, UniProt P14679); test: Tyrosinase enzymatic activity, cell-free extract of HEK293-TYR cells; assay type: biochemical; details: 1 mM; HEK293-TYR cell lysate
T1 construct: expressed in transfected cells; host or cells: HEK293-TYR (human embryonic kidney 293 cells stably expressing human TYR); cell lysate used
T1 sequence (P14679 19-529): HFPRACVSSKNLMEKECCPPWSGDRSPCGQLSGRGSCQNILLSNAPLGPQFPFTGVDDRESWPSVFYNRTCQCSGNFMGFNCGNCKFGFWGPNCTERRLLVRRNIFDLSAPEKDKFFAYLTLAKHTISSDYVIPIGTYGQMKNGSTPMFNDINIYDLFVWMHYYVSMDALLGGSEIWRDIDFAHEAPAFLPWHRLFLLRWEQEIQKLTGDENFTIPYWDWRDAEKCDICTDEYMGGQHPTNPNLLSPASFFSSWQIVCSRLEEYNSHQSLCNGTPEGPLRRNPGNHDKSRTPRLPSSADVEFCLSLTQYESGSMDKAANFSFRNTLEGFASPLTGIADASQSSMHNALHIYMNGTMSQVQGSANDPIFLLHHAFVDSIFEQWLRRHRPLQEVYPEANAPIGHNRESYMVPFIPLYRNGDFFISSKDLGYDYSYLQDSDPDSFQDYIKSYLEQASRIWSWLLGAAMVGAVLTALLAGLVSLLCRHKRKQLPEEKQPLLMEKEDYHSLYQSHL

**Q.** “FSHHLG-NH2 [B6, Phe-Ser-His-His-Leu-Gly]” was tested. Which “intracellular and extracellular melanin contents (effect of α-MSH)” value (B16-F10 cells) did it give?
**A.** The value was “concentration-dependently decreased”.

**Q.** What about the TYR protein level (tyrosinase (TYR)) of the same substance?
**A.** Its TYR protein level is “significantly decreased effects of stimulation by α-MSH”.

**Q.** What about the TYRP1 protein level [1] of the same substance?
**A.** Its TYRP1 protein level is “significantly decreased effects of stimulation by α-MSH”.

**Q.** What about the DCT protein level [2] of the same substance?
**A.** The DCT protein level was “significantly decreased effects of stimulation by α-MSH”.

**Q.** What about the “effectiveness relative to arbutin in inhibiting L-tyrosine-induced melanin” value [3] of the same substance?
**A.** Its value is “much more effective than arbutin”.

**Q.** What about the “inhibition of increase in melanin content by L-tyrosine” value ([3]; peptide up to 300 μM) of the same substance?
**A.** Its value is “effectively inhibited”.

**Q.** And the “enzymatic activity of TYR” value (human tyrosinase (TYR))?
**A.** The value was “may inhibit enzymatic activity”.
